# Percent effect of library compounds

Amino acid sequences for entries named in this document (tags omitted). Residues count along the entry.
UniProt P9WFT3, whole entry: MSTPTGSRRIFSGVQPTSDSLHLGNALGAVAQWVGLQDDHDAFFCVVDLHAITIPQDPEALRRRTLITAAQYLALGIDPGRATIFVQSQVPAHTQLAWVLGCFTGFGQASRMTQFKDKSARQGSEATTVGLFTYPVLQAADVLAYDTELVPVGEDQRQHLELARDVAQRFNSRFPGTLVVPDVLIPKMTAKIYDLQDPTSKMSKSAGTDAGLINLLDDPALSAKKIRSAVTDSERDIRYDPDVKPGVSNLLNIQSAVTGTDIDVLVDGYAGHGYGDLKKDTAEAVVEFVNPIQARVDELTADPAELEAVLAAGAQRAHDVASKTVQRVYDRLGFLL
UniProt P9WNZ1, whole entry: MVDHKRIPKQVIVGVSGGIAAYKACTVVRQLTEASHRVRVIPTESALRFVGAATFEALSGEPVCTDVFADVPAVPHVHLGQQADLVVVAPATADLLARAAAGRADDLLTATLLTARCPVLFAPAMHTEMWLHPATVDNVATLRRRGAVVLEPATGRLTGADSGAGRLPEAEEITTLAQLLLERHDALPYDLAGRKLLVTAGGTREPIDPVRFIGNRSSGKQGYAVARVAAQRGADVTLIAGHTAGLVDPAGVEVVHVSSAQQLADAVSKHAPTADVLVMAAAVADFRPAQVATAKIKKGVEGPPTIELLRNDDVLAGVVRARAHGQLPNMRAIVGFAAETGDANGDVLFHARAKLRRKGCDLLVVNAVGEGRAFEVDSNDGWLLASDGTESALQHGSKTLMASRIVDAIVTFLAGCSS
UniProt A4I591, 1-473: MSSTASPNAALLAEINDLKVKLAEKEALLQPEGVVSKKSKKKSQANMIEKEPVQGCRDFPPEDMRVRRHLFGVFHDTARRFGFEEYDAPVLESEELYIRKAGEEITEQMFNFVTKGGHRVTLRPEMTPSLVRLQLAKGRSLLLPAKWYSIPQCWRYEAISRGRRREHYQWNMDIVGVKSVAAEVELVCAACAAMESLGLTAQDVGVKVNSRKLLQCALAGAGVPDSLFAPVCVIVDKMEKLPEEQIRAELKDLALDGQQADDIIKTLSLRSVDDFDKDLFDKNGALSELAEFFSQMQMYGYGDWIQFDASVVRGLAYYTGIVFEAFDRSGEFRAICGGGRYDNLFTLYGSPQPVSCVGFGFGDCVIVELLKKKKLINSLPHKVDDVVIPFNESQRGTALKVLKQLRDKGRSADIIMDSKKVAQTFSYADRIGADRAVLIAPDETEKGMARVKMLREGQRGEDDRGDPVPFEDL
UniProt I6X8D2, whole entry: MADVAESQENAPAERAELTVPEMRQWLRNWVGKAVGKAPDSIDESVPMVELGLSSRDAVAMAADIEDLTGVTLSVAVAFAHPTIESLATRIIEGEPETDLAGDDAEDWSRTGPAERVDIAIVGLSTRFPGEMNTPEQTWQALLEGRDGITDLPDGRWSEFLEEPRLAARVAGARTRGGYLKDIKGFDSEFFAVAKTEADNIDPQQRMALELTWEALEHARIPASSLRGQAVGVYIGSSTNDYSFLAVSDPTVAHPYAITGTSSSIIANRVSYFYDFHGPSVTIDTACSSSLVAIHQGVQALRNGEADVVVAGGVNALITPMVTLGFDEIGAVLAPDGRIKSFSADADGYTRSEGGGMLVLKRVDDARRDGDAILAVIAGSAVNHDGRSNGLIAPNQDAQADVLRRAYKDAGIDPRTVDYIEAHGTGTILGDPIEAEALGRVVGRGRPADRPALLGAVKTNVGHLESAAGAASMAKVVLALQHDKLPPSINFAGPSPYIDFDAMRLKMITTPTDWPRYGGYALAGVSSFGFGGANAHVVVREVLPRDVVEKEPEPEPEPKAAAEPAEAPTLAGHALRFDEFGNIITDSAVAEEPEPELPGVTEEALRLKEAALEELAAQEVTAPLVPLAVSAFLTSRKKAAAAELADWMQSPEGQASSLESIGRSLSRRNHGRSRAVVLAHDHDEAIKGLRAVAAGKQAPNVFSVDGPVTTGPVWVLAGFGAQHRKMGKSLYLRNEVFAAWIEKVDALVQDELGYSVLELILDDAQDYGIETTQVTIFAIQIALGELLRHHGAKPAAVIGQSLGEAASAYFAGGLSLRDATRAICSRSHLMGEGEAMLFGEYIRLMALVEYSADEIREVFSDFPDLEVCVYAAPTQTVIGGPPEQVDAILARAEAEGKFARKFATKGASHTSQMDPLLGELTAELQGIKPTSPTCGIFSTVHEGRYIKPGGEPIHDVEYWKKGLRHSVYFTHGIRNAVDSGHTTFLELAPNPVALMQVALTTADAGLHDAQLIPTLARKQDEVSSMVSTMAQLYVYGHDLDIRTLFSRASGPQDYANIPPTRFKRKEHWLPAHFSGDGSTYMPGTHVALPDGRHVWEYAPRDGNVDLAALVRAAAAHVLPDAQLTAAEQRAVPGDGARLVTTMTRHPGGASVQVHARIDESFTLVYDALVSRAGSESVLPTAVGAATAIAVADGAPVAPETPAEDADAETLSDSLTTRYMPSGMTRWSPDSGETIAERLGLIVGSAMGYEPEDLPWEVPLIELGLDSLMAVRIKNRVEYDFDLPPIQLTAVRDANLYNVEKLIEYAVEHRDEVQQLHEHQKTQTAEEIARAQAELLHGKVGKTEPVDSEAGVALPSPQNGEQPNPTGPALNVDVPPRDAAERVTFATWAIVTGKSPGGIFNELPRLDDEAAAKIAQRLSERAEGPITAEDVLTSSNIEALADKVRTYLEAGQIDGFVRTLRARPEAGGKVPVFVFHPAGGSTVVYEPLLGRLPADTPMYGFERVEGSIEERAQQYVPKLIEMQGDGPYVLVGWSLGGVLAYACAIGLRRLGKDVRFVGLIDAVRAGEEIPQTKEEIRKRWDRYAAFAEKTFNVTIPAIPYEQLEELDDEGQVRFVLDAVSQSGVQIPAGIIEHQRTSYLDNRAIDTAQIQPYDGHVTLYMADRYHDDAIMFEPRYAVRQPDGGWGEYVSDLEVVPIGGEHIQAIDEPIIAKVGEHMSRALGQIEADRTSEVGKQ

From ChEMBL document CHEMBL3988442, “University of Dundee, Small-Polar-MMV Screening Library” (2021).

MtTrpRS: 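Tryptophan-tRNA ligase, Mycobacterium tuberculosis (UniProt P9WFT3). Enzyme assay of tryptophanyl-tRNA synthetase; the read-out is not stated. Compounds at 10 µM. Direction is not recorded; retested compounds ran higher, which suggests that high means inhibition. Of about 65,000 compounds tested this way, about 64 (0.098%) reached 50% or more in at least one test.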
CoaBC: 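Enzyme assay of CoaBC with a phosphate dye (Biomol Green) read at 650 nm. Target: Coenzyme A biosynthesis protein CoaBC, Mycobacterium tuberculosis (UniProt P9WNZ1). Compounds at 30 µM. Direction is inferred from only a few compounds that gave an IC50; most scored high, so higher reads as stronger inhibition. Most strong results did not repeat in a second test. Size under these conditions: about 67,000 compounds, about 40 of them at 50% or above in at least one test.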
LiHisRS: 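Enzyme assay of histidyl-tRNA synthetase; the read-out is not stated. Target: Histidine-tRNA ligase, Leishmania infantum (UniProt A4I591). Tested at 30 µM. Higher reads as stronger inhibition (inferred: compounds with an IC50 in retests scored well above the rest). The assay is labelled LdHisRS but filed under L. infantum. Size under these conditions: about 69,000 compounds, about 410 of them at 50% or above in at least one test.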
Pks13 thioesterase: 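Enzyme assay of the thioesterase domain of polyketide synthase 13; the read-out is not stated. Target: Polyketide synthase Pks13, Mycobacterium tuberculosis (UniProt I6X8D2). Compounds at 30 µM. Higher reads as stronger inhibition (inferred from which compounds were picked for retests). About 67,000 compounds were tested under these conditions; 0.46% (about 300) showed 50% or more at least once.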

Values are the deposited “Percent Effect”, in %.
The controls that fix the scale are not given in the record; negative values are as filed.
Compounds were drawn at random from those tested, without regard to their results.
A dash means the value is not listed here; it may have been measured.

| # | compound | MtTrpRS | CoaBC | LiHisRS | Pks13 thioesterase |
|---|---|---|---|---|---|
| 1 | `CC(C)Nc1cccc(CNC(=O)N2CCC[C@@H]2CO)c1` | -3.62 | -2.091 | 6.452 | -4.066 |
| 2 | `O=S(=O)(CCN1CCCCC1Cn1cncn1)c1ccccc1` (stereo not given) | 11.07 | -8.311 | 1.709 | -16.51 |
| 3 | `COc1cn(CC(=O)N2CCC(c3ccccc3)CC2)c(C)cc1=O` | 2.305 | -1.392 | 25 | 12.69 |
| 4 | `CN(CC(=O)Nc1ccccc1)C(=O)CN(C)c1ccc(Cl)cn1` | -5.345 | 6.012 | 11.76 | 11.93 |
| 5 | `CC(C)n1ccc(-c2cc(C(=O)NC3CC3)c3ccccn23)n1` | 2.05 | - | 1.724 | -43.9 |
| 6 | `Cc1cccc(N2Cc3c(NC4CCCC4)ncnc3N(C)CC2=O)c1` | -0.7779 | -4.737 | 6.897 | -7.057 |
| 7 | `Cc1ncsc1CN1C[C@H](C(=O)N2CCCO2)[C@@H]2CCO[C@@H]2C1` | 4.852 | 2.366 | 17.14 | -25.44 |
| 8 | `CN1CCN(C)c2cc(NC(=O)c3cc[nH]n3)ccc2C1` | 2.581 | -14.14 | 15.96 | 14.07 |
| 9 | `c1ccc(C2CN(C3CC3)CC3(CCN(Cc4cscn4)CC3)C2)cc1` (stereo not given) | -2.878 | 11.9 | 23.53 | - |
| 10 | `Cc1ccc(CSc2nc(N)cc(NCCC(N)=O)n2)cc1` | 16 | -1.613 | 22.37 | -34.18 |
| 11 | `c1ccc(-c2nc(CCNCc3ccccn3)co2)cc1` | 0.9032 | 3.367 | 24.47 | -3.312 |
| 12 | `Cc1ccc(-c2noc(C3CCN3C(=O)c3ccc(=O)[nH]n3)n2)s1` (stereo not given) | 3.721 | 5.085 | 9.79 | 2.289 |
| 13 | `C=C(C)CNC1CCCN(Cc2noc(C3CC3)n2)C1` (stereo not given) | 7.789 | -0.2296 | 10.2 | -6.376 |
| 14 | `CN(CCN1CCCC1)c1nccc(N2CCN[C@H]3CS(=O)(=O)C[C@H]32)n1` | 17.26 | 4.716 | 17.74 | -5.372 |
| 15 | `O=C(NCc1nc[nH]n1)c1cc(COc2cccc(F)c2)[nH]n1` | -2.056 | 3.313 | 11.76 | -3.665 |
| 16 | `COc1ccc(C(=O)N2C[C@@H](O)[C@H](NCc3ncccc3C)C2)cc1` | 4.088 | 3.236 | 17.65 | -5.268 |
| 17 | `CCC1CNCc2cc3c(OC)ccc(OC)c3nc2O1` (stereo not given) | -2.891 | 4.566 | 18.79 | -14.41 |
| 18 | `NCC(=O)N1CCCC(c2cncc(Nc3ncccn3)n2)C1` (stereo not given) | 0.5853 | 2.778 | 19.44 | -26.13 |
| 19 | `CC(C)NC(=O)N1CCC2(COCc3cnc(N4CCOCC4)nc32)C1` (stereo not given) | 1.798 | 1.003 | 17.95 | 0.8544 |
| 20 | `O=C1CC(c2ncc(-c3ccc4c(c3)OCCO4)[nH]2)CN1C1CC1` (stereo not given) | -1.475 | 3.736 | 2.857 | -22.9 |
| 21 | `CN(C)CC(=O)N1CCOCC(Cc2ccccn2)C1` (stereo not given) | -5.367 | 9.026 | 11.27 | -1.759 |
| 22 | `CCN(C(c1cccnc1)c1ccc2c(c1)CCO2)S(C)(=O)=O` (stereo not given) | -1.069 | 12.26 | 9.524 | -19.11 |
| 23 | `Cc1cccc(CN2CCc3c(nc(N4CCCCC4C)[nH]c3=O)C2)n1` (stereo not given) | 5.769 | 7.778 | 16.67 | -36.59 |
| 24 | `Cc1nc(CC(C)C)cc(C(=O)N2C[C@@H](N(C)C)[C@H](C(C)C)C2)n1` | 0.9046 | 1.595 | 15.69 | -6.229 |
| 25 | `O=C(CCN1CCOC(Cn2cccn2)C1)NC1CCCCC1` (stereo not given) | 0.6246 | -7.239 | 23.93 | -6.179 |
| 26 | `CC(C)Oc1cccc(CN2CCC(C(C)N3CCOCC3)CC2)c1` (stereo not given) | 1.687 | 0.6508 | 18.75 | -17.79 |
| 27 | `C=C(C)Cn1ccc2cc(OC)c(F)cc2c1=O` | 1.816 | 0.8065 | 5.263 | -6.179 |
| 28 | `Cc1cccc(OCC2CCCN(C(=O)Cn3ccccc3=O)C2)c1` (stereo not given) | -1.586 | 2.033 | 8.197 | 0.6535 |
| 29 | `COc1ccc(Cl)cc1-c1cc(NC(=O)C2CNC(=O)N2)[nH]n1` (stereo not given) | 0.6424 | 14.1 | 13.68 | -42.58 |
| 30 | `CN(C)C(=O)c1ccc(-c2cscn2)cc1` | -33.36 | 0.6424 | 5 | 5.439 |
| 31 | `CN(C)C(=O)COC[C@]12COC[C@H]1CN(Cc1ccco1)C2` | -6.08 | -11.85 | 5.556 | -17.44 |
| 32 | `CC(NC(=O)NCCCc1n[nH]c(N)c1C#N)c1ccccc1` (stereo not given) | 3.383 | 3.085 | 28.09 | -35.7 |
| 33 | `CC(C(=O)N1CCCCCC1)N1CCN(c2nccs2)CC1` (stereo not given) | -0.4182 | 0.8872 | -72.15 | -26.6 |